According to article PMC5442318, “Hundreds of dual-stage antimalarial molecules discovered by a functional gametocyte screen” (Nature Communications, 2017):

Tested on: HepG2 cells
Test: HepG2 cytotoxicity assay
Type: cell-based
Details: HepG2 TOX50 / Pf FGAA IC50
Method: After incubation, plates and CellTiter-Glo Reagent (G7571, Promega) were equilibrated at room temperature for 30 min before proceeding to develop the luminescent signal. Using a Multidrop combi dispenser, 25 μl per well of the signal developer were added to the plates and after 10 min at room temperature for stabilization, plates were read on the ViewLux system (Perkin Elmer).

SMILES	Selectivity ratio
Cc1c(Cn2ncc(N3CCC(N)CC3)c(Cl)c2=O)cccc1NC(=O)Nc1ccc(-c2ccccc2)cc1.O=C(O)C(F)(F)F [TCMDC-141931]	20.98
O=c1c(NCCCN(Cc2ccc(F)cc2)c2ccccn2)c(NCc2cccnc2)c1=O [TCMDC-142311]	>277.78
Cc1c(Cn2nc(Cl)c(N3CCNCC3)cc2=O)cccc1NC(=O)Nc1ccc(-c2ccccc2)cc1.O=C(O)C(F)(F)F [TCMDC-141699]	0.86
Cc1ccc(Cn2nc(Cl)c(N3CCCNCC3)cc2=O)cc1NC(=O)Nc1ccc(-c2ccccc2)cc1.O=C(O)C(F)(F)F [TCMDC-141697]	7.30
Cl.N=C1C=C(N)C(=O)c2ccccc21 [TCMDC-141992]	0.0437
Cc1ccc(Cn2ncc(N3CCCNCC3)c(Cl)c2=O)cc1NC(=O)Nc1ccc(-c2ccccc2)cc1 [TCMDC-141924]	4.53
CN1CCCC1CCNc1ncc2c(-c3ccc(NC(=O)Nc4cc(C(F)(F)F)ccc4F)c(F)c3)nn(C)c2n1.O=C(O)C(F)(F)F (centres unmarked) [TCMDC-141610]	3.14

Same assay, conditions: HepG2 TOX50 versus Pf FGAA IC50

SMILES	Selectivity ratio
Cc1cc(-c2ccc(CNC3Cc4ccccc4C3)cc2)ccc1S(=O)(=O)NCCN1CCCC1.O=C(O)C(F)(F)F [TCMDC-132243]	2.90
C[C@H](Cc1ccc(CCc2ccc(C[C@@H](C)NC[C@H](O)c3cccc(Cl)c3)cc2)cc1)NC[C@H](O)c1cccc(Cl)c1.Cl [TCMDC-131551]	2.08
CCCC(N)C(=O)NC1CCN(c2c(F)c(N)c3c(=O)c(C(=O)O)cn4c3c2Oc2ccccc2-4)C1.Cl (centres unmarked) [TCMDC-125701]	1.41
COc1cccc(-c2csc(C(=O)NCC3CCN(Cc4ccc(C(C)(C)C)cc4)C3)c2)c1.O=C(O)C(F)(F)F (centres unmarked) [TCMDC-134447]	8.84
Nc1c(Cl)cc(C(O)CNCCCCCOCCCc2ccc(O)c3ncccc23)cc1Cl.O=C(O)/C=C/C(=O)O (centres unmarked) [TCMDC-132088]	3.69
CC(C)(C)c1ccc(CN2CCC(CNC(=O)c3cc(-c4cccc(F)c4)cs3)C2)cc1.O=C(O)C(F)(F)F (centres unmarked) [TCMDC-134444]	5.01
Cn1c(Nc2cc(C(C)(C)C)on2)nc2cc(Nc3ccnc(Nc4cccc(S(=O)(=O)N5CCOCC5)c4)n3)ccc21 [TCMDC-134098]	6.83
CCc1cc2c(Sc3nnc(N)s3)ncnc2s1 [TCMDC-123993]	44.35
CCc1c(CCNCCCCCCNC(C)(C)Cc2ccc3c(c2CC)OCO3)ccc(OC)c1OC.Cl [TCMDC-132055]	3.49
Cc1ccc(Cn2nc(N3CCNCC3)ccc2=O)cc1NC(=O)Nc1ccc(-c2ccccc2)cc1.O=C(O)C(F)(F)F [TCMDC-132580]	3.83
CCc1c(CCNC/C=C/C=C/CNCCc2ccc(OC)c(OC)c2CC)ccc(OC)c1OC.Cl [TCMDC-132061]	1.82
COc1cc(-c2cc(-c3ccc(S(C)(=O)=O)cc3)cnc2N)ccc1O [TCMDC-133343]	106.15
Cc1ccc(-c2nc3cc(NC(=O)c4ccc([N+](=O)[O-])o4)ccc3o2)cc1Cl [TCMDC-123657]	1.27
Cc1n[nH]c2ccc(-c3ccc4nccc(N5CCC(N)CC5)c4c3)cc12.Cl [TCMDC-134315]	2.80
CN1CCN(Cc2ccc(-c3cc4c(Nc5ccc(OCc6cccc(F)c6)c(Cl)c5)ncnc4s3)[nH]2)CC1 [TCMDC-135458]	4.56
COc1cc2nc(NCCCN3CCCCC3)nc(NCc3ccccc3)c2cc1OC [TCMDC-132012]	7.62
Cc1[nH]c(C)c(-c2ccc(CCc3ccc(F)cc3F)cc2)c(=O)c1Cl [TCMDC-135462]	>7.52
N=C(/N=C(/NCCCCCCN/C(=N/C(=N)NCc1ccc(Cl)c(Cl)c1)N1CCCCC1)N1CCCCC1)NCc1ccc(Cl)c(Cl)c1 [TCMDC-131816]	16.52
c1ccc(CNc2cc(-c3ccccn3)nc(-c3ccccn3)n2)cc1 [TCMDC-125421]	40.15
O=C(O)C(F)(F)F.O=S(=O)(NCCN1CCCC1)c1cccc(-c2ccc(CNC3Cc4ccccc4C3)cc2)c1 [TCMDC-132241]	2.08
CCn1c(Sc2ccc([N+](=O)[O-])c(C#N)c2)nnc1-c1cccc(Cl)c1 [TCMDC-135234]	13.98
FC(F)(F)c1ccc2[nH]c(-c3cccc(-c4cccc(CNCCN5CCNCC5)c4)c3)nc2c1.O=C(O)C(F)(F)F [TCMDC-132871]	5.42
C[C@H](Cc1ccc(Oc2ccc(C[C@@H](C)NC[C@H](O)c3cccc(Cl)c3)cc2)cc1)NC[C@H](O)c1cccc(Cl)c1.Cl [TCMDC-131560]	2.82

Same assay, conditions: HepG2 TOX50 vs Pf FGAA IC50

SMILES	Selectivity ratio
Cl.c1ccc2c(NCCCCCCCCNc3ccnc4ccccc34)ccnc2c1 [TCMDC-137751]	1.13
O=C(O)C(F)(F)F.O=S(=O)(c1ccccc1)n1ccc2cc(Nc3ncnc4cc(C#C[C@H]5CCCN5)sc34)ccc21 [TCMDC-138913]	4.71
COc1cc2nc(N3CCC(CNC(=O)c4ccc(-c5ccc(C(F)(F)F)cc5)cc4)CC3)nc(N)c2cc1OC [TCMDC-138716]	5.79
Oc1ccc2[nH]cc(C3CCN(CCCNCc4ccc(-c5ccccc5)cc4)CC3)c2c1 [TCMDC-139047]	3.91
c1ccc(C23N=C(Nc4nc5ccccc5[nH]4)NC2(c2ccccc2)NC(Nc2nc4ccccc4[nH]2)=N3)cc1 (centres unmarked) [TCMDC-139082]	411.98
C#CCCOc1ccc2ccccc2c1CNCCCCCCNCc1c(OCCC#C)ccc2ccccc12 [TCMDC-137832]	5.19
CN1CCN(CCNc2c3ccccc3nc3c2ccc2ccccc23)CC1.Cl [TCMDC-137723]	1.45
Nc1nc(N)c2c(ccc3[nH]c(-c4ccccc4Cl)nc32)n1 [TCMDC-137840]	0.52
CC(Cc1ccc(CNC(=O)c2ccc(CC(C)NCCc3cccc(Cl)c3)cc2)cc1)NCCc1cccc(Cl)c1 (centres unmarked) [TCMDC-139659]	2.62
CCCCSc1c(CNCCCCCCNCc2ccc3ccccc3c2SCCCC)ccc2ccccc12.CS(=O)(=O)O [TCMDC-137825]	2.85
CCCCOc1c(CNCCCCCCNCc2ccc3ccccc3c2OCCCC)ccc2ccccc12.CS(=O)(=O)O [TCMDC-137975]	1.48
CCN(CC)CCN(Cc1ccc(-c2ccc(C(F)(F)F)cc2)cc1)C(=O)Cn1cc(Cc2cnn(C)c2)c(=O)nc1/C=C/c1ccc(F)cc1.O=C(O)C(O)C(O)C(=O)O [TCMDC-140741]	11.45
CC(NCCc1cccc(Cl)c1)C(O)c1ccc(OCCCCCCOc2ccc(C(O)C(C)NCCc3cccc(Cl)c3)cc2)cc1 (centres unmarked) [TCMDC-139334]	2.63
CC(C)(C)c1ccc(CNC(=O)c2ccc(CNC3CCC(N)CC3)s2)cc1 (centres unmarked) [TCMDC-140777]	3.67
Nc1ccc2[nH]cc(C3CCN(CC4CCC(NC(=O)/C=C/c5ccc(Cl)c(Cl)c5)CC4)CC3)c2n1 (centres unmarked) [TCMDC-140064]	18.13
CCCCOc1cc(OC)c2ccccc2c1CCNCCCCNCCc1c(OCCCC)cc(OC)c2ccccc12.CS(=O)(=O)O [TCMDC-137845]	2.59
Cc1cc(N)c2cc(NC(=O)c3cc(C(F)(F)F)cc(C(F)(F)F)c3)ccc2n1.Cl [TCMDC-139377]	3.01
CN(CCCCN)Cc1ccc(-c2ccc(Cl)cc2)cc1 [TCMDC-140123]	2.25

SMILES	Selectivity ratio
CC(Cc1ccc(NC(=O)c2ccc(CNCCCCc3ccccc3)cc2)cc1)NCCc1cccc(Cl)c1.Cl (centres unmarked) [TCMDC-139866]	1.76
COc1c(CNCCCCCCNCc2c(OC)c(OC)c3ccccc3c2OC)c(OC)c2ccccc2c1OC.CS(=O)(=O)O [TCMDC-137837]	1.20
O=C(NC1CCN(CCN2CCC(c3c[nH]c4ccccc34)CC2)CC1)c1ccc(-c2ccc(C(F)(F)F)cc2)cc1 [TCMDC-138845]	2.59
CC(Cc1ccc(C(=O)Nc2ccc(CC(C)NCCc3cccc(Cl)c3)cc2)cc1)NCCc1ccc(C(F)(F)F)cc1 (centres unmarked) [TCMDC-139790]	4.10
CCc1ccc(C2CCN(CCCCNC(=O)c3ccc(NC(=O)c4ccc(Cl)cc4)cc3)CC2)c(OCCO)c1 [TCMDC-138703]	2.38
CCCCCCCCN1CCN(CCCCCCNc2c3ccccc3nc3ccccc23)CC1.Cl [TCMDC-138015]	5.26
Nc1cc2c(C3CCN(CC4CCN(C(=O)/C=C/c5ccc(Cl)c(Cl)c5)CC4)CC3)c[nH]c2cn1 [TCMDC-140133]	3.16
CC(=O)Nc1ccc2[nH]cc(C3CCN(CC4CCC(NC(=O)/C=C/c5ccc(Cl)c(Cl)c5)CC4)CC3)c2n1 (centres unmarked) [TCMDC-140114]	7.76
COc1cccc(CCNC(C)Cc2ccc(OCCCCOc3ccccc3)cc2)c1 (centres unmarked) [TCMDC-140020]	0.97
CC(C)Cn1cc(C2CCN(CCN3CCC(CNC(=O)c4ccc(-c5ccc(C(F)(F)F)cc5)cc4)CC3)CC2)c2ccccc21 [TCMDC-138852]	5.47
CC(Cc1ccc(NS(=O)(=O)c2ccc(CC(C)NCCc3cccc(Cl)c3)cc2)cc1)NCCc1cccc(Cl)c1 (centres unmarked) [TCMDC-139797]	2.37
COc1cc(CNCCCCCCNCc2cc(OC)c3ccccc3c2OC)c(OC)c2ccccc12.CS(=O)(=O)O [TCMDC-137502]	2.20
CCN1CCC2(c3cccc(OC)c3)Cc3nc4ccccc4c(-c4ccccc4)c3CC2C1 (centres unmarked) [TCMDC-138968]	23.25
CCn1c(-c2nonc2N)nc2c(-c3cccc(NC(=O)NC45CC6CC(CC(C6)C4)C5)c3)ncc(OCCCN)c21.O=C(O)C(F)(F)F [TCMDC-136246]	4.47
COc1cc2nc(Nc3ccc4c(ccn4Cc4ccccc4)c3)nc(Nc3ccc4c(ccn4Cc4ccccc4)c3)c2cc1OC [TCMDC-138237]	8.95
CC(C)NCc1ccc(OCc2cccc(COc3ccc(CNC(C)C)cc3I)c2)c(I)c1.Cl [TCMDC-137259]	1.24
CN1CCN(CCCN(Cc2cccc(-c3ccc(CNCCc4ccccc4)cc3)c2)C(=O)c2cccs2)CC1.O=C(O)C(F)(F)F [TCMDC-140568]	3.50
